Measured values from publication doi:10.1101/2022.11.10.515925 (bioRxiv, 2022).
Results are given in words; binding and its absence hold for the method and conditions named.

Columns and labels:
Assay in all cases: SEC-MALS
[1] = biological target: KIF20A 1-565 (full-length motor domain, monomeric construct) (mouse) (UniProt P97329)
[2] = biological target: KIF20A 1-520 (monomeric construct) (mouse) (UniProt P97329)
[3] = biological target: KIF20A 25-520 (monomeric construct) (mouse) (UniProt P97329)
[4] = biological target: KIF20A 55-510 (minimal motor domain construct used in crystallography) (mouse) (UniProt P97329)
[5] = biological target: KIF20A 55-565 (monomeric construct) (mouse) (UniProt P97329)

B1: KIF20A 1-565 (full-length motor domain, monomeric construct) (domain or fragment, UniProt P97329 1-565)
chain: MSHRILSPPAGLLSDEDVVDSPILESTAADLRSVVRKDLLSDCSVISASLEDKQALLEDTSEKVKVYLRIRPFLTSELDRQEDQGCVCIENTETLVLQAPKDSFALKSNERGVGQATHKFTFSQIFGPEVGQVAFFNLTMKEMVKDVLKGQNWLIYTYGVTNSGKTYTIQGTSKDAGILPQSLALIFNSLQGQLHPTPDLKPLLSNEVIWLDSKQIRQEEMKKLSLLIGGLQEEELSTSVKKRVHTESRIGASNSFDSGVAGLSSTSQFTSSSQLDETSQLWAQPDTVPVSVPADIRFSVWISFFEIYNELLYDLLEPPSHQHKRQTLRLCEDQNGNPYVKDLNWIHVRDVEEAWKLLKVGRKNQSFASTHMNQQSSRSHSIFSIRILHLQGEGDIVPKISELSLCDLAGSERCKHQKSGERLKEAGNINTSLHTLGRCIAALRQNQQNRSKQNLIPFRDSKLTRVFQGFFTGRGRSCMIVNVNPCASTYDETLHAAKFSALASQLVHAPPVHLGIPSLHSFIKKHSPQVGPGLEKEDKADSDLEDSPEDEADVSVYGKEELLQV
binding [1]: no binding (tested: 5 mg/mL)

B2: KIF20A 1-520 (monomeric construct) (domain or fragment, UniProt P97329 1-520)
chain: MSHRILSPPAGLLSDEDVVDSPILESTAADLRSVVRKDLLSDCSVISASLEDKQALLEDTSEKVKVYLRIRPFLTSELDRQEDQGCVCIENTETLVLQAPKDSFALKSNERGVGQATHKFTFSQIFGPEVGQVAFFNLTMKEMVKDVLKGQNWLIYTYGVTNSGKTYTIQGTSKDAGILPQSLALIFNSLQGQLHPTPDLKPLLSNEVIWLDSKQIRQEEMKKLSLLIGGLQEEELSTSVKKRVHTESRIGASNSFDSGVAGLSSTSQFTSSSQLDETSQLWAQPDTVPVSVPADIRFSVWISFFEIYNELLYDLLEPPSHQHKRQTLRLCEDQNGNPYVKDLNWIHVRDVEEAWKLLKVGRKNQSFASTHMNQQSSRSHSIFSIRILHLQGEGDIVPKISELSLCDLAGSERCKHQKSGERLKEAGNINTSLHTLGRCIAALRQNQQNRSKQNLIPFRDSKLTRVFQGFFTGRGRSCMIVNVNPCASTYDETLHAAKFSALASQLVHAPPVHLGIPSLH
binding [2]: no binding (tested: 5 mg/mL)

B3: KIF20A 25-520 (monomeric construct) (domain or fragment, UniProt P97329 25-520)
chain: ESTAADLRSVVRKDLLSDCSVISASLEDKQALLEDTSEKVKVYLRIRPFLTSELDRQEDQGCVCIENTETLVLQAPKDSFALKSNERGVGQATHKFTFSQIFGPEVGQVAFFNLTMKEMVKDVLKGQNWLIYTYGVTNSGKTYTIQGTSKDAGILPQSLALIFNSLQGQLHPTPDLKPLLSNEVIWLDSKQIRQEEMKKLSLLIGGLQEEELSTSVKKRVHTESRIGASNSFDSGVAGLSSTSQFTSSSQLDETSQLWAQPDTVPVSVPADIRFSVWISFFEIYNELLYDLLEPPSHQHKRQTLRLCEDQNGNPYVKDLNWIHVRDVEEAWKLLKVGRKNQSFASTHMNQQSSRSHSIFSIRILHLQGEGDIVPKISELSLCDLAGSERCKHQKSGERLKEAGNINTSLHTLGRCIAALRQNQQNRSKQNLIPFRDSKLTRVFQGFFTGRGRSCMIVNVNPCASTYDETLHAAKFSALASQLVHAPPVHLGIPSLH
binding [3]: no binding (tested: 5 mg/mL)

B4: KIF20A 55-510 (minimal motor domain construct used in crystallography) (domain or fragment, UniProt P97329 55-510)
chain: ALLEDTSEKVKVYLRIRPFLTSELDRQEDQGCVCIENTETLVLQAPKDSFALKSNERGVGQATHKFTFSQIFGPEVGQVAFFNLTMKEMVKDVLKGQNWLIYTYGVTNSGKTYTIQGTSKDAGILPQSLALIFNSLQGQLHPTPDLKPLLSNEVIWLDSKQIRQEEMKKLSLLIGGLQEEELSTSVKKRVHTESRIGASNSFDSGVAGLSSTSQFTSSSQLDETSQLWAQPDTVPVSVPADIRFSVWISFFEIYNELLYDLLEPPSHQHKRQTLRLCEDQNGNPYVKDLNWIHVRDVEEAWKLLKVGRKNQSFASTHMNQQSSRSHSIFSIRILHLQGEGDIVPKISELSLCDLAGSERCKHQKSGERLKEAGNINTSLHTLGRCIAALRQNQQNRSKQNLIPFRDSKLTRVFQGFFTGRGRSCMIVNVNPCASTYDETLHAAKFSALASQLVHAP
binding [4]: no binding (tested: 5 mg/mL)

B5: KIF20A 55-565 (monomeric construct) (domain or fragment, UniProt P97329 55-565)
chain: ALLEDTSEKVKVYLRIRPFLTSELDRQEDQGCVCIENTETLVLQAPKDSFALKSNERGVGQATHKFTFSQIFGPEVGQVAFFNLTMKEMVKDVLKGQNWLIYTYGVTNSGKTYTIQGTSKDAGILPQSLALIFNSLQGQLHPTPDLKPLLSNEVIWLDSKQIRQEEMKKLSLLIGGLQEEELSTSVKKRVHTESRIGASNSFDSGVAGLSSTSQFTSSSQLDETSQLWAQPDTVPVSVPADIRFSVWISFFEIYNELLYDLLEPPSHQHKRQTLRLCEDQNGNPYVKDLNWIHVRDVEEAWKLLKVGRKNQSFASTHMNQQSSRSHSIFSIRILHLQGEGDIVPKISELSLCDLAGSERCKHQKSGERLKEAGNINTSLHTLGRCIAALRQNQQNRSKQNLIPFRDSKLTRVFQGFFTGRGRSCMIVNVNPCASTYDETLHAAKFSALASQLVHAPPVHLGIPSLHSFIKKHSPQVGPGLEKEDKADSDLEDSPEDEADVSVYGKEELLQV
binding [5]: no binding (tested: 5 mg/mL)
